Reference: publication PMC5891081
These are yes or no findings as the source states them, for the method shown. Some entries that bind do so weakly or less than the wild type. Sequences can lack the tags named with a protein.

Protein sequences, listed by entry. Tags and fused reporters are not part of them.
UniProt Q06609: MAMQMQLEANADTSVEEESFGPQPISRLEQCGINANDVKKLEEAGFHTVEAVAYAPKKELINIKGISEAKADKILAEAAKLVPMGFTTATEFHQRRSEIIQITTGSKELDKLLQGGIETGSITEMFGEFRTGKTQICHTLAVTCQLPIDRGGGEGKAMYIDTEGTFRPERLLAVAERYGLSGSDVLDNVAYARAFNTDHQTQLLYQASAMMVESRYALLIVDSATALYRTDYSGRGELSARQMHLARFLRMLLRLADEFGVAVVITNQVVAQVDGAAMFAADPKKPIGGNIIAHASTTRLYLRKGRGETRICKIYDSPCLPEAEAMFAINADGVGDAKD

Target: T1, GAL4-DBD-fused human RAD52 (Wt) (human) (UniProt P43351)
T1 sequence: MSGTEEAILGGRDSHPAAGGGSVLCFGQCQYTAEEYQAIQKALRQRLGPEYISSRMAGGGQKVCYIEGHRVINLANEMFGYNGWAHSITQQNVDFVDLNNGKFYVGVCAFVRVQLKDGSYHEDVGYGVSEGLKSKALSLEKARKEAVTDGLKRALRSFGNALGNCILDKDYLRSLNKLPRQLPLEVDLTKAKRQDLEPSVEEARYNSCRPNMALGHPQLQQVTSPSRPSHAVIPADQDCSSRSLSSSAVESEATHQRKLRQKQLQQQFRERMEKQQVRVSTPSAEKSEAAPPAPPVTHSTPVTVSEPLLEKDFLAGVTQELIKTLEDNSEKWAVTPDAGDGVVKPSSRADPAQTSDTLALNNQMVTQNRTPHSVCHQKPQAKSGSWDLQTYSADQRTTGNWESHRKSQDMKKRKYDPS
Assay: two-hybrid; yeast MAV203; GAL4 DBD fusion with NLS-GAL4 AD fusion; His3 reporter, growth on SC-Leu-Trp-His agar with 25 mM 3AT

binding: binds
Substance: NLS-GAL4-AD-fused human RAD51 (from UniProt Q06609 1-339)
